Results are given in words; binding and its absence hold for the method and conditions named. Binding seen in cells or lysates may run through a third protein. Here binding means that the protein was enriched with, or labelled near, the bait; the list need not be complete. Tags and fused reporters may be left off the sequences shown.
Target: λN-GFP-Bonus (Drosophila)
Assay: affinity purification with mass spectrometry; anti-GFP antibody and Protein G Dynabeads from lysate of ovaries expressing λN-GFP-Bonus; λN-GFP flies as control; 20 mM Tris-HCl pH 7.4, 150 mM NaCl, 10% glycerol, 0.5% DDM, 25 mM NEM; quantitative LC-MS, 2 biological replicates

B1: histone acetyltransferase MOF (protein, UniProt O02193 1-827)
chain: MSEAELEQTPSAGHVQEQPIEEEHEPEQEPTDAYTIGGPPRTPVEDAAAELSASLDVSGSDQSAEQSLDLSGVQAEAAAESEPPAKRQHRDISPISEDSTPASSTSTSSTRSSSSSRYDDVSEAEEAPPEPEPEQPQQQQQEEKKEDGQDQVKSPGPVELEAQEPAQPQKQKEVVDQEIETEDEPSSDTVICVADINPYGSGSNIDDFVMDPDAPPNAIITEVVTIPAPLHLKGTQQLGLPLAAPPPPPPPPAAEQVPETPASPTDDGEEPPAVYLSPYIRSRYMQESTPGLPTRLAPRDPRQRNMPPPAVVLPIQTVLSANVEAISDDSSETSSSDDDEEEEEDEDDALTMEHDNTSRETVITTGDPLMQKIDISENPDKIYFIRREDGTVHRGQVLQSRTTENAAAPDEYYVHYVGLNRRLDGWVGRHRISDNADDLGGITVLPAPPLAPDQPSTSREMLAQQAAAAAAASSERQKRAANKDYYLSYCENSRYDYSDRKMTRYQKRRYDEINHVQKSHAELTATQAALEKEHESITKIKYIDKLQFGNYEIDTWYFSPFPEEYGKARTLYVCEYCLKYMRFRSSYAYHLHECDRRRPPGREIYRKGNISIYEVNGKEESLYCQLLCLMAKLFLDHKVLYFDMDPFLFYILCETDKEGSHIVGYFSKEKKSLENYNVACILVLPPHQRKGFGKLLIAFSYELSRKEGVIGSPEKPLSDLGRLSYRSYWAYTLLELMKTRCAPEQITIKELSEMSGITHDDIIYTLQSMKMIKYWKGQNVICVTSKTIQDHLQLPQFKQPKLTIDTDYLVWSPQTAAAVVRAPGNSG
- binding: binds

Source: PMC10670193
